Inconclusive results, whose numbers are uncertain, are shown with a selection of clear calls. A potency beside an inconclusive call is a rough fit, not a confirmed value. Active and inactive are the calls of the source. The call rests on the fitted dose curve; in most records, active means well fitted curve in the direction sought with a large enough effect; inconclusive means small, poorly fitted or top-dose-only effect, or another doubt; inactive means no such curve, though single readings can be large; an effect the other way counts as inactive or inconclusive.
Tests used:
[1] = Quantitative High-Throughput drug screen in 47 multiple myeloma cell lines against the NCATS MIPE library collection: JIM3_ECACC cell viability assay (AID 1918963; further: nearly all actives have a fitted effect of over 35% in size); details: JIM3 myeloma viability, CellTiter-Glo ATP, 48 h; viability, percent of control: at 45.8 µM (top of the series) unless noted
In short: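 Inhibition of cell viability is measured here. Each line was plated at 500 cells per well, treated with MIPE 4.0 drugs, kept 48 hours at 37C, then assayed for ATP content by CellTiter-Glo luminescence.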

[2] = Quantitative High-Throughput drug screen in 47 multiple myeloma cell lines against the NCATS MIPE library collection: JIM1_ECACC cell viability assay (AID 1918964); details: JIM1 myeloma viability, CellTiter-Glo ATP luminescence, 48 h; viability (% of DMSO): at 45.8 µM (top of the series)
In short: (§1)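 Primary qHTS used for cherry-picking: cells at 500/well, library compounds for 48 h (37C, 5% CO2), luminescent ATP assay.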

[3] = Quantitative High-Throughput drug screen in 47 multiple myeloma cell lines against the NCATS MIPE library collection: INA6_PLB cell viability assay (AID 1918965; further: nearly all actives have a fitted effect of over 55% in size); details: INA6 myeloma viability, CellTiter-Glo ATP luminescence, 48 h; viability (% of control): at 45.8 µM (top of the series)
In short: (§2)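 qHTS of the MIPE 4.0 collection: 500 myeloma cells/well, 48 h drug exposure at 37C in 5% CO2, then CellTiter-Glo for 5 min at room temperature before luminescence reading.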

[4] = Quantitative High-Throughput drug screen in 47 multiple myeloma cell lines against the NCATS MIPE library collection: JJN3_DSMZ cell viability assay (AID 1918966; further: nearly all actives have a fitted effect of over 50% in size); details: JJN3 myeloma cells viability, CellTiter-Glo ATP, 48 h; viability, % of DMSO: at 45.8 µM (top of the series)
In short: as §1

[5] = Quantitative High-Throughput drug screen in 47 multiple myeloma cell lines against the NCATS MIPE library collection: Karpas25_ECACC cell viability assay (AID 1918968; further: nearly all actives have a fitted effect of over 35% in size); details: Karpas25 myeloma viability, CellTiter-Glo ATP, 48 h; viability (% of control): at 45.8 µM (top of the series)
In short: as §1

[6] = Quantitative High-Throughput drug screen in 47 multiple myeloma cell lines against the NCATS MIPE library collection: KMS27_JCRB cell viability assay (AID 1918970); details: KMS27 myeloma cells, CellTiter-Glo ATP viability, 48 h; viability (% of DMSO): at 45.8 µM (top of the series); further: nearly all actives have a fitted effect of over 30% in size
In short: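 Myeloma cells (500 per well) were exposed to MIPE 4.0 compounds for 48 h at 37 °C, 5% CO2; viability was read as ATP luminescence with CellTiter-Glo, normalized to DMSO-only (100%) and media-only (0%) wells.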

[7] = Quantitative High-Throughput drug screen in 47 multiple myeloma cell lines against the NCATS MIPE library collection: KMS12BM_JCRB cell viability assay (AID 1918971); further: nearly all actives have a fitted effect of over 35% in size
In short: (§3)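 Viability readout: CellTiter-Glo luminescence following 5 min room-temperature incubation with reagent. Prior exposure: 48 h, 37C, humidified 5% CO2, 500 cells per well.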

[8] = Quantitative High-Throughput drug screen in 47 multiple myeloma cell lines against the NCATS MIPE library collection: KMS12PE_JCRB cell viability assay (AID 1918972); details: KMS12PE myeloma viability, CellTiter-Glo ATP, 48 h; viability: at 45.8 µM (top of the series); further: nearly all actives have a fitted effect of over 30% in size
In short: as §2

[9] = Quantitative High-Throughput drug screen in 47 multiple myeloma cell lines against the NCATS MIPE library collection: KMS20_JCRB cell viability assay (AID 1918973); details: CellTiter-Glo ATP, 48 h; viability (% of DMSO): at 45.8 µM (top of the series); further: nearly all actives have a fitted effect of over 45% in size
In short: as §1

[10] = Quantitative High-Throughput drug screen in 47 multiple myeloma cell lines against the NCATS MIPE library collection: MMM1_PLB cell viability assay (AID 1918976); further: nearly all actives have a fitted effect of over 35% in size
In short: (§4)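 Viability after 48 h drug exposure was measured as ATP-dependent luminescence. Cells, 500 per well, sat at 37 °C under 5% CO2; DMSO wells set 100%, media-only wells 0%.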

[11] = Quantitative High-Throughput drug screen in 47 multiple myeloma cell lines against the NCATS MIPE library collection: MOLP8_DSMZ cell viability assay (AID 1918977); details: MOLP8 myeloma viability, CellTiter-Glo ATP luminescence, 48 h; viability (% of control): at 45.8 µM (top of the series); further: nearly all actives have a fitted effect of over 45% in size
In short: as §4

[12] = Quantitative High-Throughput drug screen in 47 multiple myeloma cell lines against the NCATS MIPE library collection: NCIH929_DSMZ cell viability assay (AID 1918978); further: nearly all actives have a fitted effect of over 35% in size
In short: as §4

[13] = Quantitative High-Throughput drug screen in 47 multiple myeloma cell lines against the NCATS MIPE library collection: OCIMY1_PLB cell viability assay (AID 1918979); further: nearly all actives have a fitted effect of over 35% in size
In short: as §4

[14] = Quantitative High-Throughput drug screen in 47 multiple myeloma cell lines against the NCATS MIPE library collection: MM1S_ATCC cell viability assay (AID 1918980); further: nearly all actives have a fitted effect of over 45% in size
In short: as §4

[15] = Quantitative High-Throughput drug screen in 47 multiple myeloma cell lines against the NCATS MIPE library collection: LP1_DSMZ cell viability assay (AID 1918982); further: nearly all actives have a fitted effect of over 35% in size
In short: as §4

[16] = Quantitative High-Throughput drug screen in 47 multiple myeloma cell lines against the NCATS MIPE library collection: KMS28PE_JCRB cell viability assay (AID 1918983); further: nearly all actives have a fitted effect of over 35% in size
In short: as §4

[17] = Quantitative High-Throughput drug screen in 47 multiple myeloma cell lines against the NCATS MIPE library collection: H1112_PLB cell viability assay (AID 1918967; further: nearly all actives have a fitted effect of over 30% in size); details: H1112 myeloma cells viability, ATP luminescence, 48 h; viability: at 45.8 µM (top of the series)
In short: as §1

[18] = Quantitative High-Throughput drug screen in 47 multiple myeloma cell lines against the NCATS MIPE library collection: KMS26_JCRB cell viability assay (AID 1918975); details: KMS26 myeloma cells viability, CellTiter-Glo ATP, 48 h; viability (% of DMSO): at 45.8 µM (top of the series); further: nearly all actives have a fitted effect of over 45% in size
In short: as §3

[19] = Quantitative High-Throughput drug screen in 47 multiple myeloma cell lines against the NCATS MIPE library collection: MM1R_ATCC cell viability assay (AID 1918981); further: nearly all actives have a fitted effect of over 35% in size
In short: as §4

[20] = Quantitative High-Throughput drug screen in 47 multiple myeloma cell lines against the NCATS MIPE library collection: KMS21BM_JCRB cell viability assay (AID 1918974); details: ATP luminescence, 48 h; viability: at 45.8 µM (top of the series) unless noted
In short: as §1
Potency means the concentration at half of the fitted maximal effect.

COc1ccccc1OCCNCC(O)COc1cccc2[nH]c3ccccc3c12 (centres undefined)
inactive: Potency [5] | Potency [13]
inconclusive: Potency [1] 20.9 µM [cytotoxic, single point] | Potency [2] 29.6 µM [cytotoxic, partial curve, poor fit] | Potency [3] 18.7 µM [cytotoxic, partial curve, poor fit] | Potency [4] 2.96 µM [cytotoxic, full curve, poor fit] | Potency [6] 37.2 µM [cytotoxic, single point] | Potency [7] 23.5 µM [cytotoxic, single point] | Potency [8] 37.2 µM [cytotoxic, single point] | Potency [9] 14.8 µM [cytotoxic, partial curve, poor fit] | Potency [10] 14.8 µM [cytotoxic, partial curve, poor fit] | Potency [11] 0.833 µM [cytotoxic, full curve, poor fit] | Potency [12] 16.6 µM [cytotoxic, partial curve, poor fit] | Potency [14] 23.5 µM [cytotoxic, single point] | Potency [15] 23.5 µM [cytotoxic, partial curve, poor fit] | Potency [16] 20.9 µM [cytotoxic, partial curve, poor fit]

Cc1ccc(C(=O)c2cc(O)c(O)c([N+](=O)[O-])c2)cc1
inactive: Potency [13] | Potency [15]
inconclusive: Potency [1] 33.2 µM [cytotoxic, single point] | Potency [2] 29.6 µM [cytotoxic, single point] | Potency [3] 37.2 µM [cytotoxic, single point] | Potency [4] 37.2 µM [cytotoxic, single point] | Potency [17] 33.2 µM [cytotoxic, single point] | Potency [7] 37.2 µM [cytotoxic, single point] | Potency [18] 37.2 µM [cytotoxic, single point] | Potency [10] 0.0047 µM [rising, full curve, poor fit] | Potency [11] 8.33 µM [cytotoxic, partial curve, poor fit] | Potency [12] 26.4 µM [cytotoxic, single point] | Potency [19] 20.9 µM [cytotoxic, partial curve, poor fit]

COc1cc([C@@H]2c3cc4c(cc3[C@H](O)[C@H]3COC(=O)[C@H]23)OCO4)cc(OC)c1OC
inconclusive: Potency [17] 0.0418 µM [cytotoxic, full curve] | Potency [7] 0.0118 µM [cytotoxic, full curve] | Potency [11] 0.0148 µM [cytotoxic, full curve] | Potency [19] 0.0033 µM [cytotoxic, full curve] | Potency [16] 0.0093 µM [cytotoxic, full curve]
inactive: Potency [1] | Potency [2] | Potency [3] | Potency [4] | Potency [20] | Potency [10] | Potency [14] | Potency [15]

CN1CCN2c3ncccc3Cc3ccccc3C2C1 (centres undefined)
inactive: Potency [1] | Potency [3] | Potency [17] | Potency [9] | Potency [18] | Potency [15] | Potency [16]
inconclusive: Potency [2] 0.0935 µM [cytotoxic, full curve, poor fit] | Potency [4] 6.62 µM [cytotoxic, full curve, poor fit] | Potency [5] 26.4 µM [cytotoxic, single point] | Potency [7] 5.9 µM [cytotoxic, partial curve, poor fit] | Potency [20] 20.9 µM [rising, partial curve] | Potency [11] 7.43 µM [cytotoxic, partial curve, poor fit] | Potency [14] 23.5 µM [cytotoxic, single point]

C[C@H]1C[C@@H]2[C@@H]([C@@H](O)C[C@@]3(C)[C@H]2CC[C@]3(O)C(=O)CO)[C@@]2(C)C=CC(=O)C=C12
inconclusive: Potency [3] 37.2 µM [cytotoxic, single point] | Potency [17] 10.5 µM [rising, partial curve, poor fit] | Potency [6] 0.0033 µM [rising, full curve, poor fit] | Potency [9] 10.5 µM [cytotoxic, partial curve, poor fit] | Potency [20] 0.209 µM [cytotoxic, partial curve, poor fit] | Potency [14] 0.209 µM [cytotoxic, full curve]
active: Potency [15] 0.0833 µM
inactive: Potency [1] | Potency [2] | Potency [4] | Potency [10] | Potency [12] | Potency [13]

Cc1cn([C@H]2C=C[C@@H](CO)O2)c(=O)[nH]c1=O
active: viability [20] 91.7% [at 92.2 µM]
inactive: Potency [2] | Potency [17] | Potency [6] | Potency [11] | Potency [13]
inconclusive: viability, percent of control [1] 78% [cytotoxic] [at 92.2 µM] | Potency [3] 76.2 µM [cytotoxic, single point] | Potency [4] 0.855 µM [rising, full curve, poor fit] | Potency [7] 0.0034 µM [rising, full curve, poor fit] | Potency [9] 0.429 µM [cytotoxic, full curve, poor fit] | Potency [10] 0.382 µM [rising, partial curve, poor fit] | Potency [14] 0.0855 µM [rising, full curve, poor fit] | Potency [19] 15.2 µM [rising, partial curve]

Cc1nccn1CC1CCc2c(c3ccccc3n2C)C1=O (centres undefined)
inconclusive: Potency [1] 33.2 µM [cytotoxic, single point] | Potency [2] 0.0235 µM [cytotoxic, full curve, poor fit] | Potency [3] 9.35 µM [cytotoxic, partial curve, poor fit] | Potency [17] 23.5 µM [cytotoxic, single point] | Potency [7] 0.332 µM [cytotoxic, full curve, poor fit] | Potency [8] 0.0132 µM [cytotoxic, full curve, poor fit] | Potency [9] 7.43 µM [cytotoxic, partial curve, poor fit] | Potency [20] 29.6 µM [rising, partial curve] | Potency [18] 0.0012 µM [rising, full curve, poor fit] | Potency [10] 13.2 µM [cytotoxic, partial curve, poor fit] | Potency [11] 33.2 µM [cytotoxic, single point] | Potency [13] 37.2 µM [cytotoxic, single point] | Potency [15] 14.8 µM [cytotoxic, partial curve, poor fit]
inactive: Potency [4] | Potency [6]

O=C(O)c1ccc(-c2c[nH]c3ncc(-c4ccccc4)cc23)cc1C1CCCC1
active: viability [20] 272%
inconclusive: Potency [1] 23.5 µM [cytotoxic, single point] | Potency [2] 0.187 µM [rising, full curve] | Potency [3] 0.418 µM [rising, full curve, poor fit] | Potency [4] 3.72 µM [rising, partial curve, poor fit] | Potency [17] 37.2 µM [cytotoxic, single point] | Potency [5] 33.2 µM [cytotoxic, single point] | Potency [6] 0.59 µM [rising, full curve] | Potency [7] 0.0166 µM [rising, full curve, poor fit] | Potency [9] 4.69 µM [rising, partial curve, poor fit] | Potency [10] 0.0264 µM [rising, full curve] | Potency [12] 37.2 µM [cytotoxic, single point] | Potency [14] 20.9 µM [cytotoxic, partial curve, poor fit] | Potency [19] 0.0053 µM [rising, full curve, poor fit] | Potency [16] 4.18 µM [rising, partial curve, poor fit]
inactive: Potency [18]

CC1(C)[C@H](O[C@H]2O[C@H](C(=O)O)[C@@H](O)[C@H](O)[C@H]2O[C@@H]2O[C@H](C(=O)O)[C@@H](O)[C@H](O)[C@H]2O)CC[C@@]2(C)[C@H]1CC[C@]1(C)[C@H]2C(=O)C=C2[C@H]3C[C@@](C)(C(=O)O)CC[C@]3(C)CC[C@]21C
inactive: Potency [1] | Potency [5] | Potency [6] | Potency [7] | Potency [18] | Potency [13] | Potency [16]
inconclusive: Potency [2] 37.2 µM [rising, single point] | Potency [3] 0.296 µM [rising, full curve, poor fit] | Potency [4] 0.0033 µM [rising, full curve, poor fit] | Potency [9] 11.8 µM [rising, full curve, poor fit] | Potency [10] 0.0042 µM [rising, full curve] | Potency [11] 0.0053 µM [rising, full curve] | Potency [14] 0.0059 µM [rising, full curve, poor fit] | Potency [19] 0.003 µM [rising, full curve, poor fit] | Potency [15] 7.43 µM [rising, single point]

C=CC[N+]1([C@H]2C[C@H]3[C@@H]4CC[C@H]5C[C@H](O)[C@@H](N6CCOCC6)C[C@]5(C)[C@@H]4CC[C@]3(C)[C@H]2OC(C)=O)CCCC1
inactive: Potency [1] | Potency [3] | Potency [17] | Potency [6] | Potency [9]
inconclusive: Potency [2] 0.0148 µM [cytotoxic, full curve, poor fit] | Potency [5] 1.66 µM [cytotoxic, partial curve, poor fit] | Potency [10] 7.43 µM [cytotoxic, partial curve, poor fit] | Potency [11] 5.9 µM [cytotoxic, partial curve, poor fit] | Potency [12] 3.32 µM [cytotoxic, full curve, poor fit] | Potency [15] 0.001 µM [cytotoxic] | Potency [16] 0.935 µM [cytotoxic, full curve, poor fit]
active: Potency [4] 0.0053 µM | Potency [14] 18.7 µM
